Measurements taken from patent US9226499B2, “Protected antimicrobial compounds for high temperature applications” (Dow Global Technologies LLC, priority 2010, dated 2016).
Some entries share one result that the patent states for a list of compounds.

Tested on: T. thermophilus
Experiment: Biocidal efficacy against thermophilic bacteria at 70° C., dilution to extinction
Assay type: cell-based
Conditions: equivalent of 100 ppm glutaraldehyde
Procedure: b. Thermophilic Bacteria. A 48-72 hour old culture of T. thermophilus is pelleted by centrifuging at 2000 g and the pellet resuspended in 10 times the culture volume of buffer (PBS or carbonate-buffered synthetic freshwater). The suspension is distributed into 10 mL aliquots in glass screw-cap tubes. Each tube is then treated with glutaraldehyde or an adduct and incubated at 70° C. At indicated timepoints, cell density in each tube is measured via dilution to extinction by serially diluting a sample and plating dilutions on solid media.

CC(C)/[N+]([O-])=C/CCC/C=[N+](\[O-])C(C)C [IPHA-adduct, N,N′-(pentane-1,5-diylidene)bis(propan-2-amineoxide)]
log reduction in CFU/mL over the course of 18 days: greater than 5 log
